Results: article PMC3401907 (Chembiochem, 2012)

Assay: Boc solid-phase peptide synthesis; MBHA resin loaded with Boc-PNA-G(Z)-OH; HBTU/DIPEA; DIC/DhBtOH for fluorescein
Conditions: whole synthesis

Row | Substance | isolated yield [%]
1 | H-C5LArgC5LArgG5LArgC5LArgT5LArgG5LArgT5LArgC5LArgACACGCACAG-NH2 | 11
2 | H-CC5LArgGC5LArgTG5LArgTC5LArgAC5LArgAC5LArgGC5LArgAC5LArgAG-NH2 | 19

Assay: general procedure: Boc solid-phase peptide synthesis; MBHA resin loaded with Boc-PNA-G(Z)-OH; HBTU/DIPEA; DIC/DhBtOH for fluorescein
Conditions: whole synthesis

Row | Substance | isolated yield [%]
3 | H-C2DArgC2DArgG2DArgC2DArgT2DArgG2DArgT2DArgC2DArgACACGCACAG-NH2 | 3.2
4 | Fl-AEEA-CC5LArgGC5LArgTG5LArgTC5LArgAC5LArgAC5LArgGC5LArgAC5LArgAG-NH2 | 17
5 | Fl-AEEA-C2DArgC2DArgG2DArgC2DArgT2DArgG2DArgT2DArgC2DArgACACGCACAG-NH2 | 2.8
6 | H-CC2DARGGC2DARGTG2DARGTC2DARGAC2DARGAC2DARGGC2DARGAC2DARG AG-NH2 | 3.6
7 | Fl-AEEA-C5LArgC5LArgG5LArgC5LArgT5LArgG5LArgT5LArgC5LArgACACGCACAG-NH2 | 17
8 | Fl-AEEA-CC2DArgGC2DArgTG2DArgTC2DArgAC2DArgAC2DArgGC2DArgAC2DArg AG-NH2 | 6.8
